Experimental data: PubChem BioAssay AID686938 (Drosophila RNAi Screening Center, 2013)
In all, the deposit lists about 23,000 reagents; this is a random part of those that have a named target and a result. In the full data, 75 (0.33%) were called active. 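Raw plate signals without normalisation; calls rest on plate z-scores that were not deposited; ratio present for only 364 wells.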 Reagents against one gene are numbered here. Not stated in the record: the dose of the treatment.

Assay: 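Knock-downs reducing store-operated calcium influx in Drosophila cells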 (primary screen)
Cells: Drosophila S2R+ cells
Reagent: long dsRNA against Drosophila genes, about 0.25 µg dsRNA per well, roughly 10,000 cells
Time to read-out: 5 days of knock-down before the calcium assay
Treatment: thapsigargin (SERCA pump blocker) to empty calcium stores; entry signal taken 4 min after adding it
Detection: 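Per-well fluo-4 fluorescence in two replicates, unnormalised, measured in resting cells and 4 min after store depletion by the SERCA blocker thapsigargin; ratio of the two present in few wells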
Scale: calcium entry signal: higher = stronger calcium signal after store depletion; resting calcium signal: higher = higher resting calcium signal
Units: calcium entry signal in fluorescence units; resting calcium signal in fluorescence units
Hit rule: 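Called when the plate z-score of the entry-to-rest ratio, mean of duplicates, falls below −3; wells with low overall dye signal (Fmax z below −2) or more than five off-targets excluded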
Calls: active = strongly reduced calcium entry; inactive = no strong reduction

For CG9877, how do the results read?
calcium entry signal, replicate 1: 4.01e7; calcium entry signal, replicate 2: 4.06e7; resting calcium signal, replicate 1: 2.03e7; resting calcium signal, replicate 2: 1.81e7; Outcome: inactive

What did the screen give for Elo68alpha?
calcium entry signal, replicate 1: 3.60e7; calcium entry signal, replicate 2: 3.86e7; resting calcium signal, replicate 1: 2.09e7; resting calcium signal, replicate 2: 1.89e7; Outcome: inactive

With CG6428, what was measured?
calcium entry signal, replicate 1: 2.37e7; calcium entry signal, replicate 2: 4.41e7; resting calcium signal, replicate 1: 1.27e7; resting calcium signal, replicate 2: 2.03e7; Outcome: inactive

What is on record for BtbVII #1?
calcium entry signal, replicate 1: 3.81e7; calcium entry signal, replicate 2: 3.74e7; resting calcium signal, replicate 1: 2.17e7; resting calcium signal, replicate 2: 1.56e7; Outcome: inactive

What did the screen give for BtbVII #2?
calcium entry signal, replicate 1: 2.99e7; calcium entry signal, replicate 2: 2.03e7; resting calcium signal, replicate 1: 2.21e7; resting calcium signal, replicate 2: 9.37e6; Outcome: inactive

For CG32087, how do the results read?
calcium entry signal, replicate 1: 2.23e7; calcium entry signal, replicate 2: 3.36e7; resting calcium signal, replicate 1: 1.24e7; resting calcium signal, replicate 2: 1.52e7; Outcome: inactive

With CG7840, what was measured?
calcium entry signal, replicate 1: 5.10e7; resting calcium signal, replicate 1: 2.45e7; Outcome: inactive

With CG43127, what was measured?
calcium entry signal, replicate 1: 3.61e7; calcium entry signal, replicate 2: 3.42e7; resting calcium signal, replicate 1: 2.08e7; resting calcium signal, replicate 2: 1.65e7; Outcome: inactive

For TwdlO, how do the results read?
calcium entry signal, replicate 1: 1.93e7; calcium entry signal, replicate 2: 3.45e7; resting calcium signal, replicate 1: 1.07e7; resting calcium signal, replicate 2: 1.49e7; Outcome: inactive

What is on record for grn #1?
calcium entry signal, replicate 1: 2.82e7; calcium entry signal, replicate 2: 6.26e7; resting calcium signal, replicate 1: 1.70e7; resting calcium signal, replicate 2: 2.88e7; Outcome: inactive

Which result is listed for grn #2?
calcium entry signal, replicate 1: 5.17e7; calcium entry signal, replicate 2: 3.99e7; resting calcium signal, replicate 1: 2.50e7; resting calcium signal, replicate 2: 1.78e7; Outcome: inactive

What is on record for CG32547 #1?
calcium entry signal, replicate 1: 3.17e7; calcium entry signal, replicate 2: 3.13e7; resting calcium signal, replicate 1: 1.73e7; resting calcium signal, replicate 2: 1.53e7; Outcome: inactive

For CG32547 #2, how do the results read?
calcium entry signal, replicate 1: 3.58e7; calcium entry signal, replicate 2: 3.36e7; resting calcium signal, replicate 1: 1.75e7; resting calcium signal, replicate 2: 1.54e7; Outcome: inactive

With CG32547 #3, what does the deposit list?
calcium entry signal, replicate 1: 4.04e7; calcium entry signal, replicate 2: 3.48e7; resting calcium signal, replicate 1: 2.03e7; resting calcium signal, replicate 2: 1.56e7; Outcome: inactive

What did the screen give for CG32547 #4?
calcium entry signal, replicate 1: 5.49e7; calcium entry signal, replicate 2: 3.81e7; resting calcium signal, replicate 1: 2.96e7; resting calcium signal, replicate 2: 2.04e7; Outcome: inactive

Which result is listed for CG13912?
calcium entry signal, replicate 1: 2.61e7; calcium entry signal, replicate 2: 3.50e7; resting calcium signal, replicate 1: 1.37e7; resting calcium signal, replicate 2: 1.54e7; Outcome: inactive

What did the screen give for CG7139?
calcium entry signal, replicate 1: 3.85e7; calcium entry signal, replicate 2: 5.15e7; resting calcium signal, replicate 1: 1.83e7; resting calcium signal, replicate 2: 3.34e7; Outcome: inactive

What did the screen give for CR18217?
calcium entry signal, replicate 1: 2.87e7; calcium entry signal, replicate 2: 3.47e7; resting calcium signal, replicate 1: 1.49e7; resting calcium signal, replicate 2: 1.46e7; Outcome: inactive

What is on record for TwdlL?
calcium entry signal, replicate 1: 5.09e7; calcium entry signal, replicate 2: 4.57e7; resting calcium signal, replicate 1: 2.16e7; resting calcium signal, replicate 2: 2.12e7; Outcome: inactive

Which result is listed for CR33221?
calcium entry signal, replicate 1: 4.08e7; calcium entry signal, replicate 2: 3.67e7; resting calcium signal, replicate 1: 2.20e7; resting calcium signal, replicate 2: 1.84e7; Outcome: inactive

For Tfb4, what does the deposit list?
calcium entry signal, replicate 1: 3.10e7; calcium entry signal, replicate 2: 2.94e7; resting calcium signal, replicate 1: 1.55e7; resting calcium signal, replicate 2: 1.45e7; Outcome: inactive

With CG15044 #1, what does the deposit list?
calcium entry signal, replicate 1: 3.68e7; calcium entry signal, replicate 2: 3.16e7; resting calcium signal, replicate 1: 1.89e7; resting calcium signal, replicate 2: 1.52e7; Outcome: inactive

What did the screen give for CG15044 #2?
calcium entry signal, replicate 1: 4.02e7; calcium entry signal, replicate 2: 3.09e7; resting calcium signal, replicate 1: 2.29e7; resting calcium signal, replicate 2: 1.53e7; Outcome: inactive

With TwdlQ #1, what was measured?
calcium entry signal, replicate 1: 2.35e7; calcium entry signal, replicate 2: 3.71e7; resting calcium signal, replicate 1: 1.34e7; resting calcium signal, replicate 2: 1.68e7; Outcome: inactive

What is on record for TwdlQ #2?
calcium entry signal, replicate 1: 4.10e7; calcium entry signal, replicate 2: 4.46e7; resting calcium signal, replicate 1: 1.89e7; resting calcium signal, replicate 2: 1.84e7; Outcome: inactive

With CG1360, how do the results read?
calcium entry signal, replicate 1: 3.20e7; calcium entry signal, replicate 2: 4.22e7; resting calcium signal, replicate 1: 1.78e7; resting calcium signal, replicate 2: 1.89e7; Outcome: inactive

How did the screen score CG10598?
calcium entry signal, replicate 1: 3.55e7; calcium entry signal, replicate 2: 3.12e7; resting calcium signal, replicate 1: 1.77e7; resting calcium signal, replicate 2: 1.50e7; Outcome: inactive
